# Measured values published in US20220324862A1, “PYRIDOPYRIMIDINONE COMPOUNDS” (Acerand Therapeutics (USA) Limited, priority 2021, published 2022).
# Some of these results come from one statement about several compounds together.
# Biological target: T1, protein-protein interaction between SOS1 and KRAS-G12D (Homo sapiens, UniProt Q07889)
# T1 construct: The purified GST-SOS1 catalytic domain (residues 564-1049) was first diluted in assay buffer; made in house; host or cells: E. coli BL21 (DE3) for SOS1; E. coli BL21 carrying a BirA plasmid for KRAS-G12D
# T1 sequence (Q07889 564-1049): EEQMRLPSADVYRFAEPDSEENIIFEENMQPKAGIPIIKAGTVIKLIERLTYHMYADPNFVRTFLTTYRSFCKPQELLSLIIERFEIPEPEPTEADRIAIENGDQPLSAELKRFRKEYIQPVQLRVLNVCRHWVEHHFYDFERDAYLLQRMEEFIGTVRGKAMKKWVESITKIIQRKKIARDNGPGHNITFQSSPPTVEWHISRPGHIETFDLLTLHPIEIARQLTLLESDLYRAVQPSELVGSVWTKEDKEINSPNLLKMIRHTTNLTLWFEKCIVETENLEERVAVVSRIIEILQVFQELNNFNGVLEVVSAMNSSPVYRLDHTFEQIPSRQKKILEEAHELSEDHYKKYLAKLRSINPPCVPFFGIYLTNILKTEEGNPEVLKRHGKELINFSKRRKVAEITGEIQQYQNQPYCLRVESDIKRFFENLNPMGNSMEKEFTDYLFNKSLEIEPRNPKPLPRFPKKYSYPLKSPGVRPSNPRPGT
# Test: HTRF Based Protein-Protein Interaction Assay
# Format: binding
# Conditions: GST-SOS1 2.5 nM, KRAS-G12D 100 nM, GDP 10 uM, read-out: IC50 value, inhibition of SOS1/KRAS-G12D protein-protein interaction
# Excerpt: A KRAS-G12D and SOS1 binding/interaction assay was designed to measure the interaction between KRAS-G12D and SOS1 proteins. Utilizing HTRF (Homogeneous Time-Resolved Fluorescence) technology, the assay enabled simple and rapid characterization of compound and protein interaction in a high throughput format. This assay was used to examine potency of the compounds in inhibiting the protein-protein interaction between SOS1 and KRAS-G12D. […] Low IC50 values are indicative of high potency of the SOS1 inhibitor compound to disrupt SOS1 and Kras-G12D interaction.
# Protein Expression and Purification. The corresponding gene sequence to human SOS1 (residues 564-1049, UniProt ID: Q07889; SEQ ID NO: 2) was synthesized and fused in frame with GST expression vector. After the desired sequence was confirmed, plasmid containing the sequence was transformed into the E. coli strain BL21 (DE3). Bacteria were growing at 37° C. in LB media containing 50 μg/ml Kanamycin to give OD600 of 0.6-0.8. Then 0.2 mM IPTG was added to induce protein expression for 16 hours at 17° C. Bacteria were harvested by centrifugation and stored at −80° C. Bacteria pellets were resuspended in lysis buffer (25 mM Tris-HCl, 500 mM NaCl, 2 mM DTT, 2.3% sucrose, 0.3% dextran-10, 1 mM PMSF, pH 7.5) and lysed using high-pressure homogenizer. The lysate was cleared by centrifugation for 30 minutes (12000 rpm at 4° C.). […]
smiles,measurement,value
"C#C[C@@H](Nc1nc(C)nc2cc(=O)n(C3CC(O)C3)cc12)c1cccc(C(F)(F)F)c1C (stereo partly drawn) [Compound 12, 6-((1S,3S)-3-hydroxycyclobutyl)-2-methyl-4-(((R)-1-(2-methyl-3-(trifluoromethyl)phenyl)prop-2-yn-1-yl)amino)pyrido[4,3-d]pyrimidin-7(6H)-one]",IC50,< 100 nM
